Record: PubChem BioAssay AID1224830 (NIAID, 2016)
This is a random part of about 18,000 reagents. About 2,900 of all reagents (16%) were called active. 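Calls are made per well; low scores hint the gene aids the LPS response, high scores that it dampens it.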 Repeated entries: four replicate wells of each siRNA pool.

Purpose: 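Regulators of TLR4 signalling towards TNF-alpha in macrophage-like cells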 (primary screen)
Cell system: human THP-1 monocytic leukaemia cells, TNF dual-luciferase reporter clone, PMA-differentiated to macrophage-like cells
Reagents: siRNA pool against human genes, 50 nM
Timing: LPS for 4 h, given about 3 days after siRNA transfection
Challenge: bacterial LPS (TLR4 ligand), 10 ng/ml
Read-out: 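TNF firefly reporter luminescence divided by renilla, normalised to the plate median, then turned into a robust z-score for each replicate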
Direction: TNF reporter robust z-score: higher = stronger TNF reporter response to LPS
Active means: 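Each well counts as active if its z-score is over 2.8 or under -1.5; controls are left without a call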

TNF reporter robust z-score,activity call,target
-0.65,inactive,DYNC1LI1 (dynein cytoplasmic 1 light intermediate chain 1)
-0.17,inactive,DYNC1LI1 (dynein cytoplasmic 1 light intermediate chain 1)
-0.69,inactive,DYNC1LI1 (dynein cytoplasmic 1 light intermediate chain 1)
0.42,inactive,DYNC1LI1 (dynein cytoplasmic 1 light intermediate chain 1)
-1.3,inactive,SF3B2 (splicing factor 3b subunit 2)
-0.7,inactive,SF3B2 (splicing factor 3b subunit 2)
-1.01,inactive,SF3B2 (splicing factor 3b subunit 2)
-0.97,inactive,SF3B2 (splicing factor 3b subunit 2)
0.34,inactive,WSCD2 (WSC domain sialate O sulfotransferase 2)
0.33,inactive,WSCD2 (WSC domain sialate O sulfotransferase 2)
0.99,inactive,WSCD2 (WSC domain sialate O sulfotransferase 2)
0.19,inactive,WSCD2 (WSC domain sialate O sulfotransferase 2)
-0.53,inactive,PPDPF
1.84,inactive,PPDPF
0.14,inactive,PPDPF
3.46,active,PPDPF
0.34,inactive,SNRK (SNF related kinase)
0.15,inactive,SNRK (SNF related kinase)
0.18,inactive,SNRK (SNF related kinase)
2.03,inactive,SNRK (SNF related kinase)
-1.43,inactive,PTK2B (protein tyrosine kinase 2 beta)
-1.18,inactive,PTK2B (protein tyrosine kinase 2 beta)
-1.61,active,PTK2B (protein tyrosine kinase 2 beta)
-1.52,active,PTK2B (protein tyrosine kinase 2 beta)
-0.46,inactive,AADACL4 (arylacetamide deacetylase like 4)
-0.77,inactive,AADACL4 (arylacetamide deacetylase like 4)
-0.37,inactive,AADACL4 (arylacetamide deacetylase like 4)
0.53,inactive,AADACL4 (arylacetamide deacetylase like 4)
-1.01,inactive,CMIP (c-Maf inducing protein)
-0.44,inactive,CMIP (c-Maf inducing protein)
-0.69,inactive,CMIP (c-Maf inducing protein)
-0.64,inactive,CMIP (c-Maf inducing protein)
-1.15,inactive,PRDM16 (PR/SET domain 16)
-1.08,inactive,PRDM16 (PR/SET domain 16)
-0.81,inactive,PRDM16 (PR/SET domain 16)
-0.18,inactive,PRDM16 (PR/SET domain 16)
0.29,inactive,HNRNPA0 (heterogeneous nuclear ribonucleoprotein A0)
-0.16,inactive,HNRNPA0 (heterogeneous nuclear ribonucleoprotein A0)
-1.12,inactive,HNRNPA0 (heterogeneous nuclear ribonucleoprotein A0)
-0.47,inactive,HNRNPA0 (heterogeneous nuclear ribonucleoprotein A0)
1.5,inactive,UBQLN1 (ubiquilin 1)
0.48,inactive,UBQLN1 (ubiquilin 1)
0.18,inactive,UBQLN1 (ubiquilin 1)
3.43,active,UBQLN1 (ubiquilin 1)
-0.94,inactive,CTU2 (cytosolic thiouridylase subunit 2)
0,inactive,CTU2 (cytosolic thiouridylase subunit 2)
0.19,inactive,CTU2 (cytosolic thiouridylase subunit 2)
0.44,inactive,CTU2 (cytosolic thiouridylase subunit 2)
-1.3,inactive,STUB1 (STIP1 homology and U-box containing protein 1)
-1.4,inactive,STUB1 (STIP1 homology and U-box containing protein 1)
-1.52,active,STUB1 (STIP1 homology and U-box containing protein 1)
-0.17,inactive,STUB1 (STIP1 homology and U-box containing protein 1)
0.41,inactive,MYOM1 (myomesin 1)
-0.22,inactive,MYOM1 (myomesin 1)
0.22,inactive,MYOM1 (myomesin 1)
-0.03,inactive,MYOM1 (myomesin 1)
0.4,inactive,AQP12A (aquaporin 12A)
1.3,inactive,AQP12A (aquaporin 12A)
0.04,inactive,AQP12A (aquaporin 12A)
0.42,inactive,AQP12A (aquaporin 12A)
1.01,inactive,TMED1 (transmembrane p24 trafficking protein 1)
2.34,inactive,TMED1 (transmembrane p24 trafficking protein 1)
1.68,inactive,TMED1 (transmembrane p24 trafficking protein 1)
0.06,inactive,TMED1 (transmembrane p24 trafficking protein 1)
-0.31,inactive,TMEM132E (transmembrane protein 132E)
0.54,inactive,TMEM132E (transmembrane protein 132E)
-0.27,inactive,TMEM132E (transmembrane protein 132E)
-0.28,inactive,TMEM132E (transmembrane protein 132E)
0.38,inactive,PHRF1 (PHD and ring finger domains 1)
0.58,inactive,PHRF1 (PHD and ring finger domains 1)
-0.25,inactive,PHRF1 (PHD and ring finger domains 1)
2,inactive,PHRF1 (PHD and ring finger domains 1)
1.55,inactive,PRPS1L1 (phosphoribosyl pyrophosphate synthetase 1 like 1)
-1.02,inactive,PRPS1L1 (phosphoribosyl pyrophosphate synthetase 1 like 1)
0.35,inactive,PRPS1L1 (phosphoribosyl pyrophosphate synthetase 1 like 1)
2.18,inactive,PRPS1L1 (phosphoribosyl pyrophosphate synthetase 1 like 1)
1.37,inactive,FCF1 (FCF1 rRNA-processing protein)
0.73,inactive,FCF1 (FCF1 rRNA-processing protein)
0.48,inactive,FCF1 (FCF1 rRNA-processing protein)
0.4,inactive,FCF1 (FCF1 rRNA-processing protein)
-0.87,inactive,MIS18A (MIS18 kinetochore protein A)
0.58,inactive,MIS18A (MIS18 kinetochore protein A)
0.03,inactive,MIS18A (MIS18 kinetochore protein A)
0.94,inactive,MIS18A (MIS18 kinetochore protein A)
-0.82,inactive,ZNF785 (zinc finger protein 785)
-0.89,inactive,ZNF785 (zinc finger protein 785)
-0.37,inactive,ZNF785 (zinc finger protein 785)
-0.4,inactive,ZNF785 (zinc finger protein 785)
-0.21,inactive,CHST1 (carbohydrate sulfotransferase 1)
0.15,inactive,CHST1 (carbohydrate sulfotransferase 1)
-0.55,inactive,CHST1 (carbohydrate sulfotransferase 1)
-1.07,inactive,CHST1 (carbohydrate sulfotransferase 1)
-0.86,inactive,KLK7 (kallikrein related peptidase 7)
-0.04,inactive,KLK7 (kallikrein related peptidase 7)
-1.13,inactive,KLK7 (kallikrein related peptidase 7)
0.23,inactive,KLK7 (kallikrein related peptidase 7)
0.65,inactive,SRGN (serglycin)
1.12,inactive,SRGN (serglycin)
0.37,inactive,SRGN (serglycin)
0.03,inactive,SRGN (serglycin)
-2.07,active,CCN2 (cellular communication network factor 2)
0.75,inactive,CCN2 (cellular communication network factor 2)
-1.46,inactive,CCN2 (cellular communication network factor 2)
-0.97,inactive,CCN2 (cellular communication network factor 2)
0.36,inactive,GPR151 (G protein-coupled receptor 151)
-0.65,inactive,GPR151 (G protein-coupled receptor 151)
-0.43,inactive,GPR151 (G protein-coupled receptor 151)
0.57,inactive,GPR151 (G protein-coupled receptor 151)
-0.11,inactive,"VNN3P (vanin 3, pseudogene)"
-0.62,inactive,"VNN3P (vanin 3, pseudogene)"
-0.32,inactive,"VNN3P (vanin 3, pseudogene)"
-0.99,inactive,"VNN3P (vanin 3, pseudogene)"
